No constants are given. Whether binding was seen depends on the method and setting. Binding calls can cover weak binding; strength is not graded here.
How the values were obtained:
[1] = molecular target: V5-tagged wild-type HLA-DRB1 (human); assay: AAL lectin pulldown from WM793 cells, V5 immunoblot (FIG. 20C)
[2] = molecular target: V5-tagged wild-type HLA-DRB1 (human); assay: V5 immunoprecipitation from WM793 cells, then blot probed with AAL (FIG. 19C)

B1: Aleuria aurantia (AAL) lectin (protein, UniProt P18891 2-313, looked up)
chain: PTEFLYTSKIAAISWAATGGRQQRVYFQDLNGKIREAQRGGDNPWTGGSSQNVIGEAKLFSPLAAVTWKSAQGIQIRVYCVNKDNILSEFVYDGSKWITGQLGSVGVKVGSNSKLAALQWGGSESAPPNIRVYYQKSNGSGSSIHEYVWSGKWTAGASFGSTVPGTGIGATAIGPGRLRIYYQATDNKIREHCWDSNSWYVGGFSASASAGVSIAAISWGSTPNIRVYWQKGREELYEAAYGGSWNTPGQIKDASRPTPSLPDTFIAANSSGNIDISVFFQASGVSLQQWQWISGKGWSIGAVVPTGTPAGW
binding [1]: binds | binding [2]: binds

Source: patent publication US20220305038A1
